Measured values taken from US10918700B2, “Lipid-based nanoparticles and use of same in optimized insulin dosing regimens” (SDG, Inc., priority 2019, dated 2021).

Tested on: type 1 diabetes (T1D)
Test: Example 3, 6-month open label study: hypoglycemic events by unblinded CGM
Type: in vivo, human
Source text: Subcutaneous (SC) insulin is non-physiologic, since pancreatic insulin goes first to the liver. The present study was designed to determine whether delivery of Hepatic Directed Vesicles (HDV) admixed with lispro/HUMALOG® (HDV-L) decreases hypoglycemia in well controlled patients on multiple daily injections (MDI) with type 1 diabetes (T1D) using unblinded Dexcom G6 continuous glucose monitoring (CGM).
This study was a 6-month (mo) open label study of prandial insulin (lispro, 3 mo, then HDV-L, 3 mo) with basal insulin degludec (TRESIBA®) and unblinded continuous glucose monitoring (CGM) in T1D with baseline A1C 6.5-8.5%. Insulin dosing, hypoglycemia, and daily glucose control were among the monitored parameters.
In this study the target fasting blood glucose was 80-100 mg/dL. At 3 mo subjects were randomized to −10% or −40% basal dose to encourage titration with HDV-L. Physicians titrated basal insulin weekly. A hypoglycemic event was defined as ≥15 min of CGM≤54 mg/dL.

insulin lispro
hypoglycemic events per week (EPW) (24 hr, lispro at 3 mo, HDV-L at end of study, event ≥15 min of CGM≤54 mg/dL, baseline 1.11): 0.99 EPW | decrease in hypoglycemic events per week from baseline (at 3 mo (lispro optimization)): 11% | hypoglycemic events per week, Daytime (DT) (lispro at 3 mo, HDV-L at end of study, baseline 1.04): 0.93 EPW | hypoglycemic events per week, Nighttime (NT) (lispro at 3 mo, HDV-L at end of study, baseline 1.39): 1.10 EPW
